Assay results reported in patent US20170142972A1, “ANTIMICROBIAL COMPOSITION INHIBITS BACTERIA AND FUNGI” (Troy Corporation, priority 2017, published 2017).

System: Pseudomonas aeruginosa (ATCC #10145), Escherichia coli (ATCC #11229), Enterobacter aerogenes (ATCC #13048), and Alcaligenes faecalis (ATCC #25094)
Test: Challenge Method for Quantifying Antibacterial Effectiveness (two 7-day cycles, mixed bacterial inoculum)
Type: cell-based
Settings: agent alone
Protocol: In order to quantify the relative antibacterial effectiveness of an antimicrobial composition, samples are prepared by adding various amounts of the antimicrobial composition to identical volumes of a sterile test material. […] Each of the samples is subjected to a two-part challenge procedure and the sample that provides acceptable anti-bacterial protection with the lowest concentration of the antimicrobial composition is identified. Each part of the anti-bacterial challenge consists of a 7-day test cycle. The parts are performed consecutively over 14 test days. […] Challenge testing is accomplished using a mixed bacterial inoculum as the contamination event. These bacteria are Pseudomonas aeruginosa (ATCC #10145), Escherichia coli (ATCC #11229), Enterobacter aerogenes (ATCC #13048), and Alcaligenes faecalis (ATCC #25094). To make the test inoculum, each type of bacteria is grown separately in nutrient broth. Just before use in the challenge test, equal volumes of the four types of bacteria are blended together to make a mixed inoculum. After incubation, both control blanks and samples containing preservative are inoculated with the mixed inoculum. […] Performance ratings of 0, 1, 2, 3 or 4 for each test sample are determined by visual inspection according to the definitions set forth below in Table 1. […]

CCCCCCCCCCCCCCCC[n+]1ccccc1 [CPC, cetyl pyridinium chloride] was tested, and the “concentration alone required to provide the required protection against bacterial growth on Test Day 14” value (adhesive) was “more than 0.5%” and the “concentration alone required to provide the required protection against bacterial growth on Test Day 14” value (paint) was “more than 0.5%”.
